For 36 molecules, AC50 results are on record in PubChem BioAssay AID1487 (National Center for Advancing Translational Sciences (NCATS), 2009).

The list shows a part of the results. Further columns of the screen follow, without active or inactive calls. The list favours compounds with an active or inconclusive main result. Words in brackets tell the shape of the fitted curve; partial curves, single points and poor fits give uncertain potencies.

A short description of this assay: qHTS Assay for Modulators of Lamin A Splicing. Conditions: HeLa LMNA splicing GFP/RFP minigene ratio, 48 h. The method in brief: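 S3 HeLa cells stably expressing lamin A-EGFP splicing minigene plus DsRed2, 600 cells/well, 48 h compound exposure at 37C. Laser-scanning cytometry; analysed as GFP (500-530 nm)/RFP (575-640 nm) total intensity ratio; 0.5% DMSO vehicle.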
For orientation: qHTS replaces the single test concentration by a dilution series.

The mark [1] stands for this setting: measured here: RFP viability control channel.
The mark [2] stands for this setting: measured here: GFP splicing reporter channel.

What is called AC50 is the concentration giving half of the maximal activity seen. As to `Cc1cccc(N2CCN(C(=O)NCc3ccc(Cl)cc3)CC2)c1`, the AC50 under setting [1] was 31.6 µM [rising, single point].
As to `S=c1nc(-c2csc3c2CCCC3)[nH][nH]1`, the AC50 under setting [2] is 0.158 µM [falling, full curve].
On the same count and under the same terms, with `COc1cc(NC(=O)COC(=O)Cc2ccc(-c3ccccc3)cc2)cc(OC)c1` the figure was 14.1 µM [rising, single point].
Regarding `COc1ccc2nc(/N=C(\N)NC(=O)Nc3ccccc3)nc(C)c2c1`, the AC50 under setting [1] was 35.5 µM [rising, single point].
As for `Oc1ccc(Cl)cc1-c1cc(-c2cccc(Br)c2)n[nH]1`, the AC50 is, setting by setting: under setting [2], 17.8 µM [rising, partial curve]; under setting [1], 12.6 µM [rising, partial curve].
In the case of `CCS(=O)(=O)CCSC(=N)N`, the AC50 under setting [1] was 35.5 µM [rising, single point].
For `Cc1nc2ccn(Cc3ccco3)c(=O)c2cc1C(=O)NCc1ccc(Cl)cc1`, under setting [1], the AC50 is 0.2 µM [rising, full curve, poor fit].
`CCN(c1ccc(OC)cc1)S(=O)(=O)c1ccc2[nH]c3c(c2c1)CCCCC3`: the AC50 is 11.2 µM [falling, partial curve] under setting [2] and 11.2 µM [falling, partial curve] under setting [1].
As to `Cc1cccc(NC(=O)COc2cccc3c2CCN(Cc2ccccc2)C3=O)c1C`, the AC50 under setting [1] was 35.5 µM [rising, single point].
`CN1/C(=C\C(=O)c2cccs2)C(C)(C)c2ccccc21`: the AC50 under setting [1] was 35.5 µM [rising, single point].
As to `COc1ccc(C2(CNC(=O)c3cc([N+](=O)[O-])cc([N+](=O)[O-])c3)CCCC2)cc1OC`, the AC50 under setting [2] was 35.5 µM [rising, single point].
`Cc1c(C(=O)c2ccc(Cl)cc2Cl)cnc2cc3c(cc12)OCO3`: the AC50 by setting is: under setting [2], 22.4 µM [rising, single point]; under setting [1], 35.5 µM [rising, single point].
With `O=C(CN1C(=O)COc2ccccc21)N1CCc2ccccc21`, the AC50 under setting [1] is 15.8 µM [rising, single point].
Turning to `CCOC(=O)c1cnc2ccc(OC)cc2c1NCc1ccccc1`, the half-maximal activity concentration (AC50) reads like this: under setting [2], 3.55 µM [rising, single point]; under setting [1], 20 µM [rising, partial curve, poor fit].
Take `CC(=O)c1ccc(N2CCN(C(=O)C3CCN(S(=O)(=O)Cc4ccccc4)CC3)CC2)cc1`: under setting [1], the AC50 is 14.1 µM [rising, partial curve].
`Cc1ccc(CN2CCc3c(OCC(=O)Nc4cc(C)ccc4C)cccc3C2=O)cc1`: under setting [1], the AC50 was 11.2 µM [rising, partial curve].
As for `CCOC(=O)c1c(S(=O)(=O)N2CCC(C(=O)NCc3cccc(OC)c3)CC2)c(C)n(C)c1C`, the AC50 under setting [1] was 5.01 µM [falling, single point].
Regarding `CC#CCN1c2ccccc2[C@]23C[C@@H](C(=O)OC)N(S(=O)(=O)c4ccc(C(F)(F)F)cc4)C2=NC(C(=O)OC)=C(C(=O)OC)[C@H]13`, the AC50 under setting [2] is 0.0316 µM [rising, full curve, poor fit] and the AC50 under setting [1] was 3.16 µM [rising, single point].
Regarding `Cc1ccc(-n2nnnc2SCC(=O)Nc2ccccc2N2CCCCC2)cc1C`, the concentration at half-maximal activity (AC50) was 0.891 µM [rising, full curve, poor fit] under setting [2] and 12.6 µM [rising, partial curve] under setting [1].
In the case of `CCc1ccc(-c2cc(C(=O)NN3CCOCC3)c3ccccc3n2)cc1`, the half-maximal activity concentration (AC50) under setting [1] is 2.82 µM [rising, full curve, poor fit].
On to `Cc1ccc(OCC(=O)N/N=C\c2c(C)[nH]n(-c3ccccc3)c2=O)c([N+](=O)[O-])c1`, for which, under setting [1], the AC50 was 7.94 µM [rising, partial curve, poor fit].
Still for that read-out and setting: as for `COc1ccc(C(=O)c2cc(C(C)=O)c(Nc3ccccc3)s2)cc1`, the figure is 10 µM [rising, partial curve, poor fit].
Turning to `CCN1CCc2c(sc(NC(=O)c3ccc(S(=O)(=O)N4CCCC(C)C4)cc3)c2C(=O)OC)C1` (stereo unspecified), the AC50 is 0.158 µM [falling, full curve, poor fit] under setting [2] and 11.2 µM [falling, partial curve, poor fit] under setting [1].
For the molecule `CC1CC(C)CN(CC(=O)N2CCCc3c2c(=O)oc2ccc(OCc4ccccc4)cc32)C1` (stereo unspecified), the AC50 under setting [1] was 31.6 µM [rising, single point].
With `CC1CCCCC1NC(=O)c1ccc2c(c1)[nH]c(=O)n2C1CCCC1` (stereo unspecified), under setting [1], the AC50 was 35.5 µM [rising, single point].
Same read-out and setting: as for `O=S1(=O)c2ccccc2N(Cc2ccccc2F)c2ccccc21`, the figure is 0.0891 µM [rising, full curve, poor fit].
For `CC(C)(C)c1ccc(CN2N=Nc3ccccc3S2(=O)=O)cc1`, the AC50 was 10 µM [falling, partial curve] under setting [2] and 10 µM [falling, partial curve] under setting [1].
On to `O=C(Cc1ccc(Cl)cc1)Nc1ccncc1`, for which the AC50 under setting [2] is 11.2 µM [falling, partial curve, poor fit].
On the same count and under the same terms, with `O=C(/C=C/c1cccc([N+](=O)[O-])c1)NCCSCc1ccco1` the figure was 8.91 µM [rising, partial curve, poor fit].
For the molecule `COc1ccc(CCNC(=O)c2ccc(-n3c(C)cc4c3CCC(C)C4)cc2)cc1OC` (stereo unspecified), the AC50 under setting [1] is 10 µM [falling, partial curve].
Turning to `C=CCS(=O)(=O)c1nc2ccccc2s1`, the AC50 by setting is: under setting [2], 7.08 µM [falling, full curve]; under setting [1], 10 µM [falling, partial curve].
On to `Cc1ccc(S(=O)(=O)N/N=C\c2cccnc2)cc1`, for which, under setting [2], the concentration at half-maximal activity (AC50) is 17.8 µM [falling, single point].
Consider `CCN(CC(=O)NCc1cccs1)C(=O)c1ccccc1F`, for which, under setting [1], the AC50 was 0.0178 µM [falling, full curve, poor fit].
Take `CCCCN(CCCC)/C(N)=N/c1nc(C)cc(C)n1`: the AC50 under setting [2] is 0.447 µM [falling, full curve, poor fit].
As to `COC(=O)C1=C(C)N(CCc2cc(OC)c(OC)c(OC)c2)C(=O)N[C@H]1c1ccc(Br)cc1`, the half-maximal activity concentration (AC50) reads like this: under setting [2], 35.5 µM [rising, single point]; under setting [1], 35.5 µM [rising, single point].
For the molecule `Cc1ccc(NC(=O)CN(C)S(=O)(=O)c2cccc3nsnc23)cc1Cl`, the AC50 under setting [1] was 20 µM [rising, partial curve, poor fit].
